Test: Pattern shape: sectional shape of the formed pattern image by SEM
Design: key: A: The pattern section had a sharp rectangular.; B: The pattern section was found to have a slightly taper shape.; C: The pattern section had a taper shape
Settings: 20 μm pattern image

Compound	Pattern shape (positive type)	Pattern shape (negative type)
Cc1cc(C)n(-c2ccc3c(c2)-c2nc-3nc3[n-]c(nc4nc(nc5[n-]c(n2)c2ccc(-n6nc(C)cc6C)cc52)-c2cc(-n5nc(C)cc5C)ccc2-4)c2ccc(-n4nc(C)cc4C)cc32)n1.[Ni+2] [Exemplified compound (16)]	A	–
Tetra-α-(3,5-dimethylpyrazolyl)zinc phthalocyanine [Exemplified compound (3)]	A	A
Tetra-β-(3,5-dimethylpyrazolyl)zinc phthalocyanine [Exemplified compound (4)]	A	A

Reference: patent US20050208394A1, “Dye-containing curable composition, color filter and method of producing the color filter” (FUJI PHOTO FILM CO., LTD., priority 2004, published 2005)
